No constants are given. Whether binding was seen depends on the method and setting. For some of these results: In cells and extracts the contact can be indirect. Some binding calls cover weakened binding; strength is not graded here.
Key:
[1] = target: Sp1 (human (endogenous in H520, H226 and human SCC-L tumors)) (UniProt P08047); assay: co-IP; IP-Western with the TrueBlot kit; Sp1 immunoprecipitated, GATA4 blotted; lysates of H520 and H226 cells treated with 100 nM nicotine for 48 h
[2] = target: Sp1 (human (endogenous in H520, H226 and human SCC-L tumors)) (UniProt P08047); assay: ChIP-re-ChIP; first chromatin IP with monoclonal Sp1 antibody, eluted with 10 mM DTT, re-immunoprecipitated with GATA4 or GATA6 polyclonal antibody; PCR of the α7-nAChR promoter; H520 cells treated with 100 nM nicotine for 48 h
[3] = target: Sp1 (human (endogenous in H520, H226 and human SCC-L tumors)) (UniProt P08047); assay: ChIP-re-ChIP; human SCC-L tumors from patients; first chromatin IP with Sp1 antibody, second with GATA4 or GATA6 antibody; PCR of the α7-nAChR promoter
[4] = target: Sp1 (human (endogenous in H520, H226 and human SCC-L tumors)) (UniProt P08047); assay: co-IP; IP-Western with the TrueBlot kit; Sp1 immunoprecipitated, GATA4 blotted; lysates of serum-starved cells without nicotine
[5] = target: Sp1 (human (endogenous in H520, H226 and human SCC-L tumors)) (UniProt P08047); assay: ChIP-re-ChIP; first chromatin IP with monoclonal Sp1 antibody, re-immunoprecipitated with GATA4 or GATA6 polyclonal antibody; PCR of the α7-nAChR promoter; untreated control H520 cells
[6] = target: Sp1 (human (endogenous in H520, H226 and human SCC-L tumors)) (UniProt P08047); assay: co-IP; IP-Western of lysates of human SCC-L tumors from patients (SCC-103, SCC-112, SCC-104, SCC-173); Sp1-GATA4; densitometry
[7] = target: Sp1 (human (endogenous in H520, H226 and human SCC-L tumors)) (UniProt P08047); assay: co-IP; data not shown; IP-Western of lysates of human SCC-L tumors from patients; Sp1-GATA6
[8] = target: Sp1 (human (endogenous in H520, H226 and human SCC-L tumors)) (UniProt P08047); assay: co-IP; data not shown; IP-Western of Sp1 and GATA6; H520 and H226 cells treated with nicotine for 48 h
[9] = target: GATA4 (human (endogenous in H520, H226 and human SCC-L tumors)) (UniProt P43694); assay: co-IP; data not shown; the other way around: H520 lysates immunoprecipitated with GATA4 or GATA6 antibody, Sp1 blotted; serum-starved cells without nicotine
[10] = target: GATA6 (human (endogenous in H520, H226 and human SCC-L tumors)) (UniProt Q92908); assay: as above
[11] = target: GATA4 (human (endogenous in H520, H226 and human SCC-L tumors)) (UniProt P43694); assay: ChIP-re-ChIP; data not shown; reverse fashion: first chromatin IP with GATA4 polyclonal antibody followed by re-ChIP; human SCC-L tumors
[12] = target: GATA4 (human (endogenous in H520, H226 and human SCC-L tumors)) (UniProt P43694); assay: co-IP; data not shown; the other way around: H520 lysates immunoprecipitated with GATA4 or GATA6 antibody, Sp1 blotted; nicotine-treated cells
[13] = target: GATA6 (human (endogenous in H520, H226 and human SCC-L tumors)) (UniProt Q92908); assay: as above

Sequences of proteins named here, by UniProt entry; tags and fusion partners are left off.
UniProt P08047: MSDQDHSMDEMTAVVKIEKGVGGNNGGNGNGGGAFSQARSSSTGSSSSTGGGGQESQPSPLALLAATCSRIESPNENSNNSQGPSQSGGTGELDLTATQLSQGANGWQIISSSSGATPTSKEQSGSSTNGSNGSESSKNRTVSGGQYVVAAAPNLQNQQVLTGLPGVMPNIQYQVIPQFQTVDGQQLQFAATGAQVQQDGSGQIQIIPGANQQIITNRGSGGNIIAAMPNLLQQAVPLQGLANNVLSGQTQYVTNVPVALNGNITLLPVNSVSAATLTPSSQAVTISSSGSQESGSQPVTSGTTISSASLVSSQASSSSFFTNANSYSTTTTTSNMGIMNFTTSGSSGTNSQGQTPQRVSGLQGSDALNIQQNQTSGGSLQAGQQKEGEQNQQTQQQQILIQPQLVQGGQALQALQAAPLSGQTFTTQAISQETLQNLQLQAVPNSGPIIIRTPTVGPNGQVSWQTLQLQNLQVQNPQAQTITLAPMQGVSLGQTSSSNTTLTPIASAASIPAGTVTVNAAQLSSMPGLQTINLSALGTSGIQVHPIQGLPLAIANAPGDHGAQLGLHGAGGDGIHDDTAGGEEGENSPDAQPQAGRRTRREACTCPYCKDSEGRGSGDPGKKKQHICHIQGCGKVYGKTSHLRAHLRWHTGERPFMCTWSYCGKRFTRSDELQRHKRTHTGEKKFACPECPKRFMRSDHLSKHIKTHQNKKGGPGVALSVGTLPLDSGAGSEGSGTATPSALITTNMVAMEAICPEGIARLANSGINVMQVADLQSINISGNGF
UniProt P43694: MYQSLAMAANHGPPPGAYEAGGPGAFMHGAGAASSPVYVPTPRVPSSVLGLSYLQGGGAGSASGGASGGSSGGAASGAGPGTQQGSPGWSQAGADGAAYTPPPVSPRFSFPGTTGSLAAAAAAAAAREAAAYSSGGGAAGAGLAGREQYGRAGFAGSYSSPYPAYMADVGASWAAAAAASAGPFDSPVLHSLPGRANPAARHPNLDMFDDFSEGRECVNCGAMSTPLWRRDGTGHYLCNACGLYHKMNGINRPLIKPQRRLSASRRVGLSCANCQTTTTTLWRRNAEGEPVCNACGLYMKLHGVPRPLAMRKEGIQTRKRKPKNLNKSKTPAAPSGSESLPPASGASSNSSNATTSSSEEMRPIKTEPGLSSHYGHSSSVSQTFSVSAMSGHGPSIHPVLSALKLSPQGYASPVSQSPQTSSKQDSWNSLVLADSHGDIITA
UniProt Q92908: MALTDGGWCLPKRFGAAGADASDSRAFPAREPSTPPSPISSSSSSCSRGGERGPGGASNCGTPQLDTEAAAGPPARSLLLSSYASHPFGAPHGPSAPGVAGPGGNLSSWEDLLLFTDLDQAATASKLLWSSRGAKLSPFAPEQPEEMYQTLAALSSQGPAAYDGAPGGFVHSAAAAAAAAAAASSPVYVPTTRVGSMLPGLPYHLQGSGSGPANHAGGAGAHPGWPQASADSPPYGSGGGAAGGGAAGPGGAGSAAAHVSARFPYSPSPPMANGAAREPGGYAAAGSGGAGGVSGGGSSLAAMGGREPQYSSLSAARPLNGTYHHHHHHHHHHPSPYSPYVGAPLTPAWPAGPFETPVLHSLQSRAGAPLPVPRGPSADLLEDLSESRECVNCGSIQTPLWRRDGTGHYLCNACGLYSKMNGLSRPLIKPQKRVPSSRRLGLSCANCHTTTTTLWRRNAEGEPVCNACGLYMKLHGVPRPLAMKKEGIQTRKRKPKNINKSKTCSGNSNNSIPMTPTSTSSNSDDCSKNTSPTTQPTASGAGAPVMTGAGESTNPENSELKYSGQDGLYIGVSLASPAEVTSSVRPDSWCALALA

| Substance | binding [1] | binding [2] | binding [3] | binding [4] | binding [5] | binding [6] | binding [7] | binding [8] | binding [9] | binding [10] | binding [11] | binding [12] | binding [13] |
| --- | --- | --- | --- | --- | --- | --- | --- | --- | --- | --- | --- | --- | --- |
| GATA4 (from UniProt P43694 1-442) | binds | binds | binds | binds weakly | binds weakly | binds |  |  |  |  |  |  |  |
| GATA6 (from UniProt Q92908 1-595) |  | binds | binds |  | binds weakly |  | binds | binds |  |  |  |  |  |
| Sp1 (from UniProt P08047 1-785) |  |  |  |  |  |  |  |  | binds weakly | binds weakly | binds | binds | binds |
